# Earlier results, collected in patent publication US9963674B2, “Age-modified cells and methods for making age-modified cells” (Memorial Sloan-Kettering Cancer Center, priority 2013, dated 2018).
# At least one compound was matched to its structure with a doubt left.
# Tested on: HGPS patient fibroblasts
# Details: HGPS patient fibroblasts (Cao et al.); cited from earlier work
structure (smiles),measurement,value
CO[C@H]1C[C@@H]2CC[C@@H](C)[C@@](O)(O2)C(=O)C(=O)N2CCCC[C@H]2C(=O)O[C@H]([C@H](C)C[C@@H]2CC[C@@H](O)[C@H](OC)C2)CC(=O)[C@H](C)/C=C(\C)[C@@H](O)[C@@H](OC)C(=O)[C@H](C)C[C@H](C)/C=C/C=C/C=C/1C [rapamycin],progerin turnover,increased progerin turnover
